Record: PubChem BioAssay AID1508597 (Cure First, 2020)

Assay: 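Survival screen with siRNA in ovarian cancer cells derived from patients, with or without rucaparib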 (primary screen)
Cells: human ovarian carcinoma lines grown from tumours: OCI-P5x (papillary serous) and OCI-C5x (clear cell)
Reagent: siRNA pool against human genes, 1.25 pmol siRNA per well
Duration: 72 h or 96 h, depending on the cell culture
Conditions: rucaparib 20 µM (about IC30) or vehicle, present until read-out
Measured: 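ATP luminescence measured at 72 or 96 h according to the culture, then normalised and expressed as percent viability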
Scale: viability, normalised: higher = more viable cells remaining
Hit rule: 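a well counts as a hit if its normalised viability is under 80 percent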
Meaning of the calls: active = viability under 80%; inactive = viability 80% or more
The whole screen tested about 2,100 reagents; below is a random part of them. 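Calls flag viability under 80% in either arm, not effects specific to rucaparib; the reference for percent is not stated.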 Some reagents were tested in more than one well and are listed for each. The record does not give: the 100% reference.

gene | PubChem SID | rucaparib or vehicle | cell line | technical replicate | viability, normalised (%) | call
FAAP24 | SID405528305 | Rucaparib | OCI-C5x (clear cell) | 1 | 40.1 | active
FAAP24 | SID405528305 | Rucaparib | OCI-C5x (clear cell) | 2 | 50.5 | active
FAAP24 | SID405528305 | Rucaparib | OCI-C5x (clear cell) | 3 | 50.6 | active
FAAP24 | SID405528305 | Rucaparib | OCI-P5x (serous) | 1 | 77.6 | active
FAAP24 | SID405528305 | Rucaparib | OCI-P5x (serous) | 2 | 77 | active
FAAP24 | SID405528305 | Rucaparib | OCI-P5x (serous) | 3 | 71.9 | active
FAAP24 | SID405528305 | Vehicle | OCI-C5x (clear cell) | 1 | 57.8 | active
FAAP24 | SID405528305 | Vehicle | OCI-C5x (clear cell) | 2 | 44.3 | active
FAAP24 | SID405528305 | Vehicle | OCI-C5x (clear cell) | 3 | 55.7 | active
FAAP24 | SID405528305 | Vehicle | OCI-P5x (serous) | 1 | 64.3 | active
FAAP24 | SID405528305 | Vehicle | OCI-P5x (serous) | 2 | 67.8 | active
FAAP24 | SID405528305 | Vehicle | OCI-P5x (serous) | 3 | 78.4 | active
TAF9 | SID405527805 | Rucaparib | OCI-C5x (clear cell) | 1 | 31.9 | active
TAF9 | SID405527805 | Rucaparib | OCI-C5x (clear cell) | 2 | 37.2 | active
TAF9 | SID405527805 | Rucaparib | OCI-C5x (clear cell) | 3 | 54 | active
TAF9 | SID405527805 | Rucaparib | OCI-P5x (serous) | 1 | 67.7 | active
TAF9 | SID405527805 | Rucaparib | OCI-P5x (serous) | 2 | 91.9 | inactive
TAF9 | SID405527805 | Rucaparib | OCI-P5x (serous) | 3 | 58.3 | active
TAF9 | SID405527805 | Vehicle | OCI-C5x (clear cell) | 1 | 58.3 | active
TAF9 | SID405527805 | Vehicle | OCI-C5x (clear cell) | 2 | 55.7 | active
TAF9 | SID405527805 | Vehicle | OCI-C5x (clear cell) | 3 | 44 | active
TAF9 | SID405527805 | Vehicle | OCI-P5x (serous) | 1 | 92.7 | inactive
TAF9 | SID405527805 | Vehicle | OCI-P5x (serous) | 2 | 83 | inactive
TAF9 | SID405527805 | Vehicle | OCI-P5x (serous) | 3 | 83.8 | inactive
RUVBL2 | SID405527265 | Rucaparib | OCI-C5x (clear cell) | 1 | 72.5 | active
RUVBL2 | SID405527265 | Rucaparib | OCI-C5x (clear cell) | 1 | 62.8 | active
RUVBL2 | SID405527265 | Rucaparib | OCI-C5x (clear cell) | 2 | 46.4 | active
RUVBL2 | SID405527265 | Rucaparib | OCI-C5x (clear cell) | 2 | 64.3 | active
RUVBL2 | SID405527265 | Rucaparib | OCI-C5x (clear cell) | 3 | 66.4 | active
RUVBL2 | SID405527265 | Rucaparib | OCI-C5x (clear cell) | 3 | 52.3 | active
RUVBL2 | SID405527265 | Rucaparib | OCI-P5x (serous) | 1 | 72.7 | active
RUVBL2 | SID405527265 | Rucaparib | OCI-P5x (serous) | 1 | 49.5 | active
RUVBL2 | SID405527265 | Rucaparib | OCI-P5x (serous) | 2 | 51.1 | active
RUVBL2 | SID405527265 | Rucaparib | OCI-P5x (serous) | 2 | 90.7 | inactive
RUVBL2 | SID405527265 | Rucaparib | OCI-P5x (serous) | 3 | 49.8 | active
RUVBL2 | SID405527265 | Rucaparib | OCI-P5x (serous) | 3 | 96.4 | inactive
RUVBL2 | SID405527265 | Vehicle | OCI-C5x (clear cell) | 1 | 35.9 | active
RUVBL2 | SID405527265 | Vehicle | OCI-C5x (clear cell) | 1 | 33.3 | active
RUVBL2 | SID405527265 | Vehicle | OCI-C5x (clear cell) | 2 | 49.1 | active
RUVBL2 | SID405527265 | Vehicle | OCI-C5x (clear cell) | 2 | 57.5 | active
RUVBL2 | SID405527265 | Vehicle | OCI-C5x (clear cell) | 3 | 55 | active
RUVBL2 | SID405527265 | Vehicle | OCI-C5x (clear cell) | 3 | 44.2 | active
RUVBL2 | SID405527265 | Vehicle | OCI-P5x (serous) | 1 | 90.7 | inactive
RUVBL2 | SID405527265 | Vehicle | OCI-P5x (serous) | 1 | 63.1 | active
RUVBL2 | SID405527265 | Vehicle | OCI-P5x (serous) | 2 | 89.9 | inactive
RUVBL2 | SID405527265 | Vehicle | OCI-P5x (serous) | 2 | 80.5 | inactive
RUVBL2 | SID405527265 | Vehicle | OCI-P5x (serous) | 3 | 99.5 | inactive
RUVBL2 | SID405527265 | Vehicle | OCI-P5x (serous) | 3 | 75.1 | active

5 of these entries, reformatted.
gene,PubChem SID,rucaparib or vehicle,cell line,technical replicate,"viability, normalised (%)",call
FAAP24,SID405528305,Vehicle,OCI-C5x (clear cell),3,55.7,active
FAAP24,SID405528305,Vehicle,OCI-P5x (serous),1,64.3,active
FAAP24,SID405528305,Vehicle,OCI-P5x (serous),2,67.8,active
FAAP24,SID405528305,Vehicle,OCI-P5x (serous),3,78.4,active
TAF9,SID405527805,Rucaparib,OCI-C5x (clear cell),1,31.9,active
